Measured values: patent publication US20250261660A1, “FORMULATIONS AND METHODS FOR USE IN OXIDATION TREATMENT APPLICATIONS” (priority 2022, published 2025)

Test system: catalase enzyme
Settings: 4 mL oxidant solution added to 40 mL untreated water, room temperature, after 4 minutes

## OO [hydrogen peroxide]
  thickness of head of foam: approximately 1 inches
